Reference: PubChem BioAssay AID652259 (Drosophila RNAi Screening Center, 2013)
The deposit covers about 22,000 reagents; shown is an unselected part of those with a known target gene and a result. Of all reagents, 233 (1.1%) got an active call. 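Light values are raw, unnormalised plate reads; the ratio scores behind the reporter calls were not deposited.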 The numbers tell different reagents against one gene apart. Names joined by + are all predicted targets of the reagent. Not stated in the record: the amount of reagent, the time to read-out, the dose of the treatment.

- Aim: 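Genome-wide hunt for genes that control Wingless pathway activity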 (primary screen)
- Cells: Drosophila clone 8 imaginal disc epithelial cells
- Reagent: long dsRNA against Drosophila genes
- Treatment: pathway stimulated by co-transfected Wingless expression plasmid
- Read-out: 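Dual luciferase reads per well after Wingless plasmid stimulation: reporter firefly light and Renilla control light; activity is firefly divided by Renilla, a ratio not deposited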
- Scale: firefly reporter light: higher = more Wg reporter light, before normalisation; Renilla control light: higher = more transfected or surviving cells
- Call rule: 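a knock-down is a candidate when at least two out of four statistical tests show it departing from its plate mean; one test alone signals a weak candidate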
- Calls: active = candidate regulator (raises or lowers reporter); inactive = not a candidate

gene knocked down | reagent no. | firefly reporter light, replicate 1 | firefly reporter light, replicate 2 | Renilla control light, replicate 1 | Renilla control light, replicate 2 | outcome
DUBAI + Tmem18 | 1 | 22903 | – | 18934 | – | inactive
Klp67A + CG34456 | 1 | 5942 | – | 3456 | – | inactive
sip1 (septin interacting protein 1) | 1 | 1111 | 6147 | 512 | 2155 | inactive
sip1 (septin interacting protein 1) | 2 | 4.41e5 | 4.51e5 | 1.53e5 | 64070 | inactive
CG13137 | 1 | 2368 | 5738 | 982 | 3275 | inactive
CG7102 | 1 | 10000 | – | 4552 | – | inactive
CG7102 | 2 | 2331 | 5973 | 765 | 2649 | inactive
Sqor (Sulfide quinone oxidoreductase) | 1 | 4441 | – | 2101 | – | inactive
CG11425 | 1 | 14938 | – | 5328 | – | inactive
CG13921 | 1 | 19144 | 6.98e5 | 7360 | 2.88e5 | inactive
CG7465 | 1 | 2242 | 9869 | 986 | 3696 | inactive
CG7465 | 2 | 6.72e5 | 6.63e5 | 3.11e5 | 2.93e5 | inactive
obst-A (obstructor-A) | 1 | 3229 | 10946 | 1284 | 3719 | inactive
CG31098 | 1 | 19904 | – | 14100 | – | inactive
CG13559 | 1 | 2678 | 6776 | 861 | 2211 | inactive
CG42566 | 1 | 17962 | – | 9917 | – | inactive
CG18304 | 1 | 3771 | 7160 | 893 | 935 | inactive
unc-119 | 1 | 15632 | – | 6652 | – | inactive

A few values from the list:
unc-119, Renilla control light, replicate 1 = 6652
Value of CG31098 in “Renilla control light, replicate 1”: 14100
Result for CG7102 #2 under “firefly reporter light, replicate 1”: 2331
Value for CG13921 under “outcome”: inactive
Entry of CG11425 under “outcome”: inactive
Value for CG7465 #2 in “outcome”: inactive

Continued:
gene knocked down | reagent no. | firefly reporter light, replicate 1 | firefly reporter light, replicate 2 | Renilla control light, replicate 1 | Renilla control light, replicate 2 | outcome
CG14957 | 1 | 6437 | – | 2953 | – | inactive
CG6441 | 1 | 1240 | 4857 | 507 | 1608 | inactive
CG7290 | 1 | 11040 | – | 2889 | – | inactive
MKP-4 (MAPK Phosphatase 4) | 1 | 2994 | 7495 | 929 | 2121 | inactive
CG3841 | 1 | 2534 | 5117 | 1173 | 3322 | inactive
P5cr-2 (Pyrroline-5-carboxylate reductase-like 2) | 1 | 12059 | – | 3050 | – | inactive
D (Dichaete) | 1 | 6085 | – | 1958 | – | inactive
m-cup (mann-cup) | 1 | 10836 | – | 2939 | – | inactive
CR31958 (pseudo) | 1 | 4296 | 10144 | 1224 | 3986 | inactive
CR31958 (pseudo) | 2 | 4.13e5 | 3.48e5 | 1.57e5 | 1.53e5 | inactive
Dtwd2 + Obp84a | 1 | 13865 | – | 4288 | – | inactive
CG10051 | 1 | 5211 | – | 2272 | – | inactive
ProtB (Protamine B) | 1 | 2189 | 6016 | 625 | 2669 | inactive
CG15577 | 1 | 27777 | – | 13273 | – | inactive
Syn2 (Syntrophin-like 2) | 1 | 5200 | – | 2588 | – | inactive
miple2 (midkine and pleiotrophin 2) | 1 | 5804 | – | 2320 | – | inactive
CG14855 | 1 | 17656 | – | 3431 | – | inactive
eIF4B (eukaryotic translation initiation factor 4B) | 1 | 21304 | – | 11634 | – | inactive
CG2063 | 1 | 3520 | 7170 | 466 | 1048 | inactive
Dus1 (Dihydrouridine synthase 1) | 1 | 1564 | 6448 | 588 | 2472 | inactive
TTLL12 (Tubulin tyrosine ligase-like 12) | 1 | 3113 | 4336 | 307 | 2786 | inactive
Nph (Nucleophosmin) | 1 | 8877 | – | 3899 | – | inactive
CG10097 + CG10096 | 1 | 4587 | – | 2378 | – | inactive
CG10097 + CG10096 | 2 | 10267 | – | 2416 | – | inactive
verm (vermiform) | 1 | 5417 | – | 2589 | – | inactive
GMF (Glia maturation factor) | 1 | 13904 | – | 6276 | – | inactive
b6 | 1 | 22320 | – | 12792 | – | inactive
Hou (Houki) | 1 | 3667 | 12327 | 1543 | 4612 | inactive
Hou (Houki) | 2 | 4.91e5 | 4.97e5 | 2.18e5 | 2.25e5 | inactive
CG9518 | 1 | 15117 | – | 6909 | – | inactive
O-fut1 (O-fucosyltransferase 1) | 1 | 17318 | – | 5212 | – | inactive
